Article PMC9388692, “Nuclear import of PTPN18 inhibits breast cancer metastasis mediated by MVP and importin β2” (Cell Death & Disease, 2022)

Chains of the proteins cited; added tags and fusions are not shown.
UniProt Q14764: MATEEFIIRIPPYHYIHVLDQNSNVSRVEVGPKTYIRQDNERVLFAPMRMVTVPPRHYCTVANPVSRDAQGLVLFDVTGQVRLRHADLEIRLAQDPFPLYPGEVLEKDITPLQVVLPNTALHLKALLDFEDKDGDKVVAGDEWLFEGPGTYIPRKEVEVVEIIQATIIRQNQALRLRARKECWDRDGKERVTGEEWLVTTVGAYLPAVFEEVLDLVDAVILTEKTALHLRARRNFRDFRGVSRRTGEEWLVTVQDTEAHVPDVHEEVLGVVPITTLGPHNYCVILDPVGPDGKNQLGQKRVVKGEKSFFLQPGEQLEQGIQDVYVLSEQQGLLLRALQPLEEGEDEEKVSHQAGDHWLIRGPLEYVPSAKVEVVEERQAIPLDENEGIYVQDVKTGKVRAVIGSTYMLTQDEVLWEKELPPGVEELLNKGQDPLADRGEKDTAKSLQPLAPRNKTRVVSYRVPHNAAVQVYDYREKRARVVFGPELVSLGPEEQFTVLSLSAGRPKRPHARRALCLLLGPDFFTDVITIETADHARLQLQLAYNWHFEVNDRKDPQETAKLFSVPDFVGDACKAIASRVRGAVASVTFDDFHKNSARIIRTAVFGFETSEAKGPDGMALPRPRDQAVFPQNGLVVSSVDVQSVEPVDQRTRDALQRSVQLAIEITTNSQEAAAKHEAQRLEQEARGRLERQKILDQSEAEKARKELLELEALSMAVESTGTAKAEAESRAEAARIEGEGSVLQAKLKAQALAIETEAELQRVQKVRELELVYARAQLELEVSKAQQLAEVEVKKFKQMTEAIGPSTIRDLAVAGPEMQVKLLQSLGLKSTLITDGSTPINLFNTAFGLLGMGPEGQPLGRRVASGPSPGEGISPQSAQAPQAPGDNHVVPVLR

Target: T1, PTPN18 (endogenous) (human (endogenous in MCF7 and T-47D)) (UniProt Q99952)
T1 sequence: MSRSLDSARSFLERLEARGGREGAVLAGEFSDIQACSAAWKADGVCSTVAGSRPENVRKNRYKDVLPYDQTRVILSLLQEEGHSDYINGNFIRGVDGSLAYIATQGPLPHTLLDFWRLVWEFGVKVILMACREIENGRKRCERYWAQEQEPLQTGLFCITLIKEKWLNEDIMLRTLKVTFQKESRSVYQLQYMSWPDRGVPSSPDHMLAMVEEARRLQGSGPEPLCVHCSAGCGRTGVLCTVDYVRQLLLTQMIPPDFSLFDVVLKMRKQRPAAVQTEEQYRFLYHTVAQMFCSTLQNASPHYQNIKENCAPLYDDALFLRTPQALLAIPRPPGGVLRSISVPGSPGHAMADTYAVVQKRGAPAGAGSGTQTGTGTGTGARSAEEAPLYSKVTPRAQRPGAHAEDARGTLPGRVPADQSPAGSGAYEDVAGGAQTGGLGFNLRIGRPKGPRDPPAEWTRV
Test: affinity purification with mass spectrometry; immunoprecipitation of PTPN18 from MCF7 cells followed by LC-MS/MS

- binding: binds
Substance: MVP (endogenous) (from UniProt Q14764 1-893)

No constants are given. Whether binding was seen depends on the method and setting. Binding seen in cells or lysates may run through a third protein. Here binding means that the protein was enriched with, or labelled near, the bait; the list need not be complete.
